Results published in patent publication US6673843B2 (Emory University, priority 1999, dated 2004).

Tested on: bFGF-induced corneal neovascularization
Assay: Corneal neovascularization, bFGF pellet in mouse cornea
Type: in vivo, C57BL6 male mice
Conditions: for ANTI-ANGIOGENIC EFFECT Sector Size Rank: rank 1-5, higher = greater reduction of sector size; for ANTI-ANGIOGENIC EFFECT Vessel Length Rank: rank 1-5, higher = greater reduction of vessel length
Description: C57BL6 male mice (5-6 weeks old) were anesthetized with methoxyflurane prior to implantation of pellets and with 0.5% proparacaine. A central, intrastromal linear keratotomy was performed with a surgical blade, and a lamellar micropocket was prepared according to the method of Kenyon, et al. (1996). The pellet was advanced to the end of the pocket. Erythromycin ointment was placed on the operated eye to prevent infection. Eyes were examined by slit lamp on days 3-6 after implantation under general anesthesia. Corneal angiogenesis was assayed through two measurements.
Vessel length is the length of the vessel from the corneal limbus as it grows toward the pellet containing bFGF.
Sector size is a measurement of neovascularized area of the cornea. The cornea is viewed as a circle that can be divided into twelve sectors of 30 degrees span each, analogous to the division of a clock face into twelve hours. Thus, neovascularization of a sector corresponding to one fourth of the cornea would be recorded as a sector size measurement of three. This system of measurement, recording sector sizes as “clock hours”, was established by Kenyon et al., Invest. Ophthalmol. 37:1625-1632 (1996).
Pellets were prepared according to a modification of the method of Kenyon, et al. Invest. Opthalmol. Vis. Sci. 37:1625-1632 (1996). […] Once the mixture was dry, the mesh was manually dissociated to yield 225 pellets. […] The approximate pore size was 0.4×0.4 mm. Both sides of the mesh were covered with a thin layer of hydron.
Neovascularization was assessed by slit lamp at 5 days after implantation, and the corneas were photographed.

SMILES	ANTI-ANGIOGENIC EFFECT Sector Size Rank	ANTI-ANGIOGENIC EFFECT Vessel Length Rank
COc1cc(/C=C/C(=O)CC(=O)/C=C/c2ccc(O)c(OC)c2)ccc1O [Curcumin]	4	4
O=C1C(c2ccccc2)=C(c2ccccc2)C(c2ccccc2)=C1c1ccccc1 [TPCPD, tetraphenylcyclopentadienone, reference compound]	1	1
